Test results taken from the supplement of paper PMC10849652.
This is one part of the list.

Protein sequences, listed by entry. Tags and fused reporters are not part of them. Lines headed by an entry give the natural chain unless they say otherwise; changes in a name come on top.
UniProt Q9NWT6: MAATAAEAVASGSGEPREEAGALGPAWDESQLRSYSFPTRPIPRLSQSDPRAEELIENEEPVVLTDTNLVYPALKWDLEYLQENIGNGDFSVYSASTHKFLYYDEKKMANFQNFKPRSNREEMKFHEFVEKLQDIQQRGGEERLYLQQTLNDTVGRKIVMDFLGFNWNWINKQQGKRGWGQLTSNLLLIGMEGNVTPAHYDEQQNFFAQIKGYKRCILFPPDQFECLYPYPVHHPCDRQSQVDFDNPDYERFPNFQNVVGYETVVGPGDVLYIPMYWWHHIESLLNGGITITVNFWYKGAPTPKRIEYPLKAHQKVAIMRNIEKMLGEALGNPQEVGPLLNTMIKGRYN
UniProt P55795: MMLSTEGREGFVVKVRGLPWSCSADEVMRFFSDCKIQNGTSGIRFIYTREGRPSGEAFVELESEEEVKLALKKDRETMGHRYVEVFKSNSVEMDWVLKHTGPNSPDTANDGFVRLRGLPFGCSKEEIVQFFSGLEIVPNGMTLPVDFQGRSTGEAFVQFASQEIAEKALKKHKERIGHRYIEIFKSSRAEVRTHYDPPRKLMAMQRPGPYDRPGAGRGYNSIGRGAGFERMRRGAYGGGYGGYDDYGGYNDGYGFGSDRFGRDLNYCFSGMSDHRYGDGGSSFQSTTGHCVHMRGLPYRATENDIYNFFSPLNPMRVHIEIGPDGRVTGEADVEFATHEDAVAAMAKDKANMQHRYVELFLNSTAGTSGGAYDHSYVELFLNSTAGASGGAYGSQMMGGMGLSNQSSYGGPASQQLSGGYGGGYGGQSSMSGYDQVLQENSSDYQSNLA
UniProt Q9UGU5: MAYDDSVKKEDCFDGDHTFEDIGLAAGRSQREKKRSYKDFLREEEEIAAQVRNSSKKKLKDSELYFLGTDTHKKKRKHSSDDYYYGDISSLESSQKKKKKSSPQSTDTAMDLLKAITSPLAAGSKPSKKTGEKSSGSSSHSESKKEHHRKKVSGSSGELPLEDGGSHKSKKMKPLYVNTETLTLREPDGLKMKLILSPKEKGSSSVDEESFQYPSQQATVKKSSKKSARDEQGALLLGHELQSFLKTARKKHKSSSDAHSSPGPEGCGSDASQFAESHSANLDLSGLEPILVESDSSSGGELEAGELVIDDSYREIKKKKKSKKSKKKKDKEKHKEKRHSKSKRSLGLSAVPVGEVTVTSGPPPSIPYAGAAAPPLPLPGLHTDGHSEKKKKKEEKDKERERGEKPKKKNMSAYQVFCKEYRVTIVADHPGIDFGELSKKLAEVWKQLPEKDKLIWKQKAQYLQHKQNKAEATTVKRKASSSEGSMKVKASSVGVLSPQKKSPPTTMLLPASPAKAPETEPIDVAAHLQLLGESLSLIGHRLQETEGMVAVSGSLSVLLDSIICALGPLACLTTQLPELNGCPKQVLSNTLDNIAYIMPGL
UniProt Q9P2P5: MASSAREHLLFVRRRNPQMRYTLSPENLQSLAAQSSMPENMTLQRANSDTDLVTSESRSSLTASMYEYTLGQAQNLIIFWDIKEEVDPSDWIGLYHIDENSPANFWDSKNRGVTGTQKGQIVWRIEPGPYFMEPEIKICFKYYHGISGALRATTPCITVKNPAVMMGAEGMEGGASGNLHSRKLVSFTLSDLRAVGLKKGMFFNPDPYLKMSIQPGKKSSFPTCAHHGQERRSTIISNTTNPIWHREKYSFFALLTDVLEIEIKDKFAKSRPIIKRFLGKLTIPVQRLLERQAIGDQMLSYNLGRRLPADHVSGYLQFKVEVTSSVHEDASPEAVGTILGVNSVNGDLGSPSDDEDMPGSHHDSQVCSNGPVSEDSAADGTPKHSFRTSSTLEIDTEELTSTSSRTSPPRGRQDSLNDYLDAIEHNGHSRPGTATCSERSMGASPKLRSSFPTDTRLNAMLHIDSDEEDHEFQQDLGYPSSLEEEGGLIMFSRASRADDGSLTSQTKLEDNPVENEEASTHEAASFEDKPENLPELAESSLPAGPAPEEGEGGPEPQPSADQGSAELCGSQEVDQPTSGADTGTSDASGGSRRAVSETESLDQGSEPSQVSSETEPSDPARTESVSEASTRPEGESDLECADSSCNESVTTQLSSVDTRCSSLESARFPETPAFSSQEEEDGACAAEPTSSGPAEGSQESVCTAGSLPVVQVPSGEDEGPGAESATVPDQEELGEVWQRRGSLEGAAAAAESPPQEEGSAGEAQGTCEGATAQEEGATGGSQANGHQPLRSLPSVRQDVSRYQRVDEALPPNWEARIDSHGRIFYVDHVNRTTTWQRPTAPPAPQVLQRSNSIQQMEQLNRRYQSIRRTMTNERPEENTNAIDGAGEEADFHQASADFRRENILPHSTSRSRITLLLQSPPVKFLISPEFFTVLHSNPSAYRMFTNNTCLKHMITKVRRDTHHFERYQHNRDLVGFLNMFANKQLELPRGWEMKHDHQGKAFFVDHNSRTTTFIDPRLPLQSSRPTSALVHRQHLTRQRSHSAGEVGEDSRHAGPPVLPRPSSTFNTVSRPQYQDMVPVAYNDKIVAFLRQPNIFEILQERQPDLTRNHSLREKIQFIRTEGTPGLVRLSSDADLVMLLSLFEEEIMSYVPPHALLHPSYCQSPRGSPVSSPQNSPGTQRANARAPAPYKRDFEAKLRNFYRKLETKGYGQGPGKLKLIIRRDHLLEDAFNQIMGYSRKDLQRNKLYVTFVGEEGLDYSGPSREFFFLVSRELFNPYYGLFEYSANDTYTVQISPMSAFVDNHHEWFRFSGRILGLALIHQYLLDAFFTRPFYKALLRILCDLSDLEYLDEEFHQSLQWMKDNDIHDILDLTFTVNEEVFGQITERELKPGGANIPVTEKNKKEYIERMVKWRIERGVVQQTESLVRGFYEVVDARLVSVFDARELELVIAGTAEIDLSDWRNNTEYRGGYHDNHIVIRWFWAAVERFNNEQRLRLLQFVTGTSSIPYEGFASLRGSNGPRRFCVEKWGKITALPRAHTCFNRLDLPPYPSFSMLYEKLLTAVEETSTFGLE
UniProt P00738: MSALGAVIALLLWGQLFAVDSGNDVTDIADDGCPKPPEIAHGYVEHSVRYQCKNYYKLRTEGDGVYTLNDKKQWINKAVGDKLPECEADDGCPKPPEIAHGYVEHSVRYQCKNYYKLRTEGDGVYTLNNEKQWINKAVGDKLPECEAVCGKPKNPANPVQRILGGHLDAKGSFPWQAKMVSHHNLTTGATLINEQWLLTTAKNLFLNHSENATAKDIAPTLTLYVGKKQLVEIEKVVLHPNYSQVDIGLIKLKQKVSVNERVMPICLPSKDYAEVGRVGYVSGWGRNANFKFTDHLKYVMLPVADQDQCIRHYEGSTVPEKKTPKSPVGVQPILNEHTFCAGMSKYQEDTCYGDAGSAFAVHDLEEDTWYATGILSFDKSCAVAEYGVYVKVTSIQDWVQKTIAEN
UniProt Q9NRZ9: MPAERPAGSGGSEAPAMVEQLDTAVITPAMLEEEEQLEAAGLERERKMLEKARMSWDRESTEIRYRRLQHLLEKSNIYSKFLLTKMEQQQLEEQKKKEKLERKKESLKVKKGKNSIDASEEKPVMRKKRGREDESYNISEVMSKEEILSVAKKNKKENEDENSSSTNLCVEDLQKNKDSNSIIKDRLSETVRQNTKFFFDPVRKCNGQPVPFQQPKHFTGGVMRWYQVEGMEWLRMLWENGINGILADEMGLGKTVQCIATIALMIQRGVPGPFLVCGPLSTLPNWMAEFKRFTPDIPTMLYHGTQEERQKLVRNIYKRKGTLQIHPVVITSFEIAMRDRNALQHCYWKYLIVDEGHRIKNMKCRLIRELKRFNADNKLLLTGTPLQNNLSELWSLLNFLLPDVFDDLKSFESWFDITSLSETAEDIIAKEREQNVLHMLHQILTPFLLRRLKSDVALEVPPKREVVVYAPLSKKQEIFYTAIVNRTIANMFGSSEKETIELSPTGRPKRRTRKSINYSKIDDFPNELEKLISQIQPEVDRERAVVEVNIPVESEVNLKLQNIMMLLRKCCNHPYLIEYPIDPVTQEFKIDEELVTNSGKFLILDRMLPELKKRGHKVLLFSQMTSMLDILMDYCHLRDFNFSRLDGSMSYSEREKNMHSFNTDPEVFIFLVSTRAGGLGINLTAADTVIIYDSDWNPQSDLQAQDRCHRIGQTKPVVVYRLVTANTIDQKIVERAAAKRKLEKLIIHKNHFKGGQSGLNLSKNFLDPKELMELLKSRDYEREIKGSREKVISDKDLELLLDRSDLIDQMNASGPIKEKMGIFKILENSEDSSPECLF
UniProt Q15011: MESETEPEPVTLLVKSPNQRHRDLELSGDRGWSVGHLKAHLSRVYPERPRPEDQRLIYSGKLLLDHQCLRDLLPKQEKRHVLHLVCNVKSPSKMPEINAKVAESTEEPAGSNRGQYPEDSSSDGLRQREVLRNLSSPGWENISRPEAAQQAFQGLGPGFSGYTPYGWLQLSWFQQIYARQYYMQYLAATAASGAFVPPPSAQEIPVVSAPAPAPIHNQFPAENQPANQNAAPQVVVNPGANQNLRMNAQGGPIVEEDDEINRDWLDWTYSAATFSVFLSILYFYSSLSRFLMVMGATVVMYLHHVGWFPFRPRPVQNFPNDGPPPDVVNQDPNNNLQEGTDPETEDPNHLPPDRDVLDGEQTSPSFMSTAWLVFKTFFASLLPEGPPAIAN
UniProt Q15034: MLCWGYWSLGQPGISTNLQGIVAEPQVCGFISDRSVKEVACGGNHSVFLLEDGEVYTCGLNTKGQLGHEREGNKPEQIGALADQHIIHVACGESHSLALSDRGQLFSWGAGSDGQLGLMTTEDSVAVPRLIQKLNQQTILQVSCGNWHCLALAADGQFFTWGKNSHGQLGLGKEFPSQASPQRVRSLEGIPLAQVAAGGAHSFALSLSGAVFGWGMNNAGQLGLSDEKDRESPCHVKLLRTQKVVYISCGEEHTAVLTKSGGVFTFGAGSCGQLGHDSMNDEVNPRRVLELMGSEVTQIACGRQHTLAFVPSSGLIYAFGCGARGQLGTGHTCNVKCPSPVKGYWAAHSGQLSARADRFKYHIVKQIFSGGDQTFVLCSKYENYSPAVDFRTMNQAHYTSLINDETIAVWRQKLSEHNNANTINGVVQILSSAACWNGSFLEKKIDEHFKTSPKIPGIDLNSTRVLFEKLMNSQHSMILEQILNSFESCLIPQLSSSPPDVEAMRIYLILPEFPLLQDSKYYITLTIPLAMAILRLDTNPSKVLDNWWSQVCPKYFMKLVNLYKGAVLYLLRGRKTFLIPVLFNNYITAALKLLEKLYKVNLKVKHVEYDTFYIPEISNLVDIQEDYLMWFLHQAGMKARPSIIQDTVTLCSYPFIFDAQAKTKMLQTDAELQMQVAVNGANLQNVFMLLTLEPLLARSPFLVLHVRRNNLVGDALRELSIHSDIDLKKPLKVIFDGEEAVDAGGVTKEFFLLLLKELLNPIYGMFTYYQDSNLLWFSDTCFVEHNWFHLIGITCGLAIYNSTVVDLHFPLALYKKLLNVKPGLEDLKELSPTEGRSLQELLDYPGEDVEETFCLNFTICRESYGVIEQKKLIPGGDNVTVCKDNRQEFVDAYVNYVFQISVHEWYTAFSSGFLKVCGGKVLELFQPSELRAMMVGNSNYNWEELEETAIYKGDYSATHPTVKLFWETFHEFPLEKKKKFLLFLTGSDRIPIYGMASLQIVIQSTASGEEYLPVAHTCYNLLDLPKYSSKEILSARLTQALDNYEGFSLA
UniProt Q15651: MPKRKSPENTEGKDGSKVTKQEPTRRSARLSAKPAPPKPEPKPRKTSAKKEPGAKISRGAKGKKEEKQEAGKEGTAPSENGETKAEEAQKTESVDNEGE
UniProt Q9Y241: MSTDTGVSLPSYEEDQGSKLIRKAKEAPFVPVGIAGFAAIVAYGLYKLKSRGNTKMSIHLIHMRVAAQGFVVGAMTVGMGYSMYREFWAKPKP
UniProt P14210, whole entry, looked up: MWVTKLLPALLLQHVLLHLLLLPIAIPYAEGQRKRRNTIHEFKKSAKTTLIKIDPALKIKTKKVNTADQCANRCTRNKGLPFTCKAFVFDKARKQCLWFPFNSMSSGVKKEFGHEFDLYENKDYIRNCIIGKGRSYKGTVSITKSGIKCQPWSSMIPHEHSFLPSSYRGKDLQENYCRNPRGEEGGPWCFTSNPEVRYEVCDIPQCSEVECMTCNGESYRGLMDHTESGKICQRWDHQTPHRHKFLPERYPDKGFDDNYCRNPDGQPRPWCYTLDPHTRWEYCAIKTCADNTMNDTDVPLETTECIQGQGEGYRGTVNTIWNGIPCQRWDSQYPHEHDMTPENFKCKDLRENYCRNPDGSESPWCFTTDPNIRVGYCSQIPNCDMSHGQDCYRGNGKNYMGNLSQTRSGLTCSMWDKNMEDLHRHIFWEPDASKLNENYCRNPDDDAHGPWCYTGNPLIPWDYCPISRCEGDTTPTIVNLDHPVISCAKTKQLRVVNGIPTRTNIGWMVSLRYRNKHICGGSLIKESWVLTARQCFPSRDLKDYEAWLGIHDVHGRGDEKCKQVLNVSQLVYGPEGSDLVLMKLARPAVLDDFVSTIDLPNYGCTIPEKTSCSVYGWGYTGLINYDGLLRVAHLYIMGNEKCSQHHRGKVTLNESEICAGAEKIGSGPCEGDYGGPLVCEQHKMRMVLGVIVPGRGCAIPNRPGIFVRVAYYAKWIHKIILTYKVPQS

How the values were obtained:
Assay in all cases: log2 fold change, soluble protein after heating vs DMSO (PISA); higher = thermal stabilisation; K562 lysate, 10 uM; active = over 0.2 and 3.5 SD of the protein, either way, in both replicates (recomputed)
erlotinib = compound: C#Cc1cccc(Nc2ncnc3cc(OCCOC)c(OCCOC)cc23)c1 [erlotinib]
Method in brief: (§1)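 Following dounce homogenisation of K562 pellets in PBS pH 7.4 with 1 mM MgCl2, crude extract at 1 mg/mL protein was incubated for 30 min with 10 μM compound. Aliquots were then heated for 3 min over 48°C-58°C and pooled, NP-40 was added to 0.5% at 4°C, and soluble protein was recovered as the supernatant at 21,000xg for 90 min. Channel-sum-equalised TMTpro 16plex LC-MS/MS quantified this protein. Each value, from duplicates, is a log-two fold change in thermal stability relative to solvent controls.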

[1] = compound: C/C(=N\NC(=O)C1=CC(=CC=C1)S(=O)(=O)N2CCOCC2)/C3=C(C=CC(=C3)Cl)O
Method in brief: as §1

[2] = compound: C1=CC(=CC=C1C2=NC3=C(N2)C=C(C=C3)C(=O)N)OC4=CC=C(C=C4)Cl
Method in brief: as §1

[3] = compound: C1=CC2=C(C=CC(=C2)/C=C\3/C(=O)NC(=NCC4=CC=CS4)S3)N=C1
Method in brief: as §1

[4] = compound: C1=CC2=NC=CN=C2C=C1/C=C/3\C(=O)NC(=O)S3
Method in brief: as §1

[5] = compound: C1=CC=C(C=C1)C2=NC(=C(N2)C3=CC=NC=C3)C4=CC(=C(C=C4)Cl)O
Method in brief: as §1

[6] = compound: C1=CC=C2C(=C1)C3=NNC4=CC=CC(=C43)C2=O
Method in brief: as §1

[7] = compound: C1CCN(C1)C(=O)NC2=CC=CC(=C2)NC3=NC=C(C(=N3)NCCC4=CN=CN4)Br
Method in brief: as §1

[8] = compound: C1CN(CCC1(CC2=CC=C(C=C2)Cl)N)C3=NC=NC4=C3C=CN4
Method in brief: as §1

IRAK-1-4 Inhibitor I = compound: C1COCCN1CCN2C3=CC=CC=C3N=C2NC(=O)C4=CC(=CC=C4)[N+](=O)[O-] [IRAK-1-4 Inhibitor I]
Method in brief: as §1

Measured: log2 fold change

HEXB (UniProt P07686)
inactive: erlotinib -0.017 | [1] 0.032 | [2] 0.004 | [3] 0.012 | [4] 0.004 | [5] -0.028 | [6] 0.008 | [7] 0.003 | [8] -0.013 | IRAK-1-4 Inhibitor I -0.007

HIF1AN (UniProt Q9NWT6)
inactive: erlotinib -0.013 | [1] -0.022 | [2] 0.026 | [3] -0.031 | [4] -0.026 | [5] 0.002 | [6] 0.014 | [7] -0.037 | [8] 0.048 | IRAK-1-4 Inhibitor I -0.116

HMGN1 (UniProt P05114)
inactive: erlotinib -0.02 | [1] -0.026 | [2] 0.038 | [3] 0.075 | [4] 0.004 | [5] 0.024 | [6] -0.053 | [7] 0.014 | [8] 0.038 | IRAK-1-4 Inhibitor I 0.051

HSP90AB4P (UniProt Q58FF6)
inactive: erlotinib 0.062 | [1] 0.071 | [2] -0.113 | [3] -0.029 | [4] -0.258 | [5] 0.086 | [6] -0.091 | [7] -0.148 | [8] 0.04 | IRAK-1-4 Inhibitor I 0.009

HNRNPH2 (UniProt P55795)
inactive: erlotinib -0.035 | [1] 0.112 | [2] 0.028 | [3] -0.047 | [4] 0.02 | [5] 0.038 | [6] -0.015 | [7] 0.01 | [8] -0.013 | IRAK-1-4 Inhibitor I 0

HECTD3 (UniProt Q5T447)
inactive: erlotinib 0.027 | [1] 0 | [2] -0.005 | [3] 0.008 | [4] 0.022 | [5] 0.018 | [6] -0.008 | [7] -0.028 | [8] -0.026 | IRAK-1-4 Inhibitor I 0.008

HMGXB4 (UniProt Q9UGU5)
inactive: erlotinib 0.164 | [1] -0.024 | [2] 0.105 | [3] 0.036 | [6] -0.013 | [7] 0.093 | [8] 0.043

HSPA1L (UniProt P34931)
inactive: erlotinib 0.073 | [1] 0.049 | [2] -0.014 | [3] -0.026 | [4] 0.022 | [5] 0.025 | [6] 0.115 | [7] 0.012 | [8] -0.053 | IRAK-1-4 Inhibitor I 0.114

HECW2 (UniProt Q9P2P5)
inactive: erlotinib -0.012 | [1] 0.009 | [2] -0.093 | [3] 0.013 | [5] -0.075 | [6] 0.023 | [7] 0.029 | [8] -0.118 | IRAK-1-4 Inhibitor I 0.082

HRAS (UniProt P01112)
inactive: erlotinib -0.044 | [2] -0.037 | [5] 0.037 | [7] -0.034 | [8] 0.021 | IRAK-1-4 Inhibitor I 0.012

HMCN1 (UniProt Q96RW7)
inactive: [1] 0.131 | [3] -0.069 | [4] -0.037 | [5] 0.033 | [6] -0.003 | IRAK-1-4 Inhibitor I 0.16

HP (UniProt P00738)
inactive: [5] 0.869 | IRAK-1-4 Inhibitor I -0.373

HEXIM2 (UniProt Q96MH2)
inactive: erlotinib -0.02 | [2] 0 | [5] 0.103 | IRAK-1-4 Inhibitor I 0.088

HNMT (UniProt P50135)
inactive: erlotinib -0.145 | [2] 0.108 | [4] 0.134 | [7] 0.016 | [8] 0.269

HPS6 (UniProt Q86YV9)
inactive: [7] -0.147 | [8] 0.107

HNRNPUL1 (UniProt M0R247)
inactive: erlotinib -0.046 | [2] 0.079 | [4] -0.049

HMGXB3 (UniProt Q12766)
inactive: [7] -0.104 | [8] 0.062

HES1 (UniProt Q14469)
inactive: erlotinib -0.014 | [2] -0.025 | [5] -0.124 | [7] -0.316 | [8] -0.035 | IRAK-1-4 Inhibitor I -0.138

HNRNPM (UniProt M0QZM1)
inactive: [1] 0.07 | [3] 0.044 | [4] 0.246 | [6] 0.066 | [7] 0.046 | [8] 0.086

HNRNPM (UniProt M0R019)
inactive: [1] 0.224 | [3] 0.178 | [6] -0.128

HOOK2 (UniProt Q96ED9)
inactive: erlotinib 0.101 | [2] -0.391 | [4] -0.096

HELLS (UniProt Q9NRZ9)
inactive: erlotinib 0.1 | [2] 0.085 | [5] -0.022 | [7] 0.086 | [8] 0.027 | IRAK-1-4 Inhibitor I 0.067

HOMER3 (UniProt Q9NSC5)
inactive: [4] -0.078

HPGD (UniProt P15428)
inactive: [7] -0.059 | [8] -0.104

HP1BP3 isoform 5 (UniProt Q5SSJ5)
inactive: erlotinib 0.022 | [2] 0.086

HS6ST1 (UniProt O60243)
inactive: erlotinib 0.045 | [2] -0.187

HMGN5 (UniProt Q5JSK9)
inactive: [4] -0.128 | [7] 0.008 | [8] -0.076

HMX3 (UniProt A6NHT5)
inactive: erlotinib 0.025 | [2] 0.028

HERPUD1 (UniProt Q15011)
inactive: [1] -0.144 | [3] 0.06 | [4] 0.162 | [6] 0.007 | [7] 0.074 | [8] 0.001

HSP90AA2P (UniProt Q14568)
inactive: [7] -0.097 | [8] 0.078

HLA-DRA
inactive: [7] 0.218 | [8] 0.068

Retrieved one by one from the entries so far (2):
HERPUD1 (UniProt Q15011)
inactive: [1] -0.144 | [3] 0.06 | [4] 0.162 | [6] 0.007 | [7] 0.074 | [8] 0.001

HLA-DRA
inactive: [7] 0.218 | [8] 0.068

(next part)

HERC3 (UniProt Q15034)
inactive: [5] -0.02 | [7] -0.082 | [8] 0.06 | IRAK-1-4 Inhibitor I 0.059

HMGN3 (UniProt Q15651)
inactive: erlotinib -0.049 | [2] 0.065 | [4] -0.018 | [5] -0.015 | IRAK-1-4 Inhibitor I 0.016

HOXB4 (UniProt P17483)
inactive: [1] -0.107 | [3] -0.025 | [4] -0.022 | [5] -0.251 | [6] -0.087 | [7] 0.036 | [8] 0.064 | IRAK-1-4 Inhibitor I -0.151

HMGA1 isoform 2 (UniProt P17096)
inactive: erlotinib 0.042 | [2] -0.043 | [5] 0.022 | IRAK-1-4 Inhibitor I 0

HIGD1A isoform 2 (UniProt Q9Y241)
inactive: erlotinib -0.039 | [2] 0.014 | [5] -0.004 | IRAK-1-4 Inhibitor I 0.004

HMGCR isoform 3 (UniProt P04035)
inactive: [7] -0.174 | [8] 0.053

HSF2 (UniProt Q03933)
inactive: [1] -0.183 | [3] -0.116 | [5] -0.048 | [6] 0.032 | [7] -0.094 | [8] 0.053 | IRAK-1-4 Inhibitor I -0.019

HNRNPL, A0A3B3ITJ4
inactive: [4] -0.086

HGF (UniProt P14210)
inactive: erlotinib -0.347 | [2] 0.058 | [5] -0.142 | IRAK-1-4 Inhibitor I 0.124

HOOK1 (UniProt Q9UJC3)
inactive: erlotinib 0.11 | [2] 0.142

HLA-E (UniProt P13747)
inactive: erlotinib -0.089 | [2] 0.071 | [7] 0.118 | [8] 0.039
